PMC4712141
These are yes or no findings as the source states them, for the method shown. For part of these data: In cells and extracts the contact can be indirect. Some entries that bind do so weakly or less than the wild type.

By UniProt entry, the sequences of proteins in these tests, tags left out. Where a name states a change or a piece, a line headed by the entry shows the natural chain unless it says otherwise. Chains listed by the source or under a name are the forms on record and can include a tag or linker. Residues count along the entry.
UniProt A0A509AQ20: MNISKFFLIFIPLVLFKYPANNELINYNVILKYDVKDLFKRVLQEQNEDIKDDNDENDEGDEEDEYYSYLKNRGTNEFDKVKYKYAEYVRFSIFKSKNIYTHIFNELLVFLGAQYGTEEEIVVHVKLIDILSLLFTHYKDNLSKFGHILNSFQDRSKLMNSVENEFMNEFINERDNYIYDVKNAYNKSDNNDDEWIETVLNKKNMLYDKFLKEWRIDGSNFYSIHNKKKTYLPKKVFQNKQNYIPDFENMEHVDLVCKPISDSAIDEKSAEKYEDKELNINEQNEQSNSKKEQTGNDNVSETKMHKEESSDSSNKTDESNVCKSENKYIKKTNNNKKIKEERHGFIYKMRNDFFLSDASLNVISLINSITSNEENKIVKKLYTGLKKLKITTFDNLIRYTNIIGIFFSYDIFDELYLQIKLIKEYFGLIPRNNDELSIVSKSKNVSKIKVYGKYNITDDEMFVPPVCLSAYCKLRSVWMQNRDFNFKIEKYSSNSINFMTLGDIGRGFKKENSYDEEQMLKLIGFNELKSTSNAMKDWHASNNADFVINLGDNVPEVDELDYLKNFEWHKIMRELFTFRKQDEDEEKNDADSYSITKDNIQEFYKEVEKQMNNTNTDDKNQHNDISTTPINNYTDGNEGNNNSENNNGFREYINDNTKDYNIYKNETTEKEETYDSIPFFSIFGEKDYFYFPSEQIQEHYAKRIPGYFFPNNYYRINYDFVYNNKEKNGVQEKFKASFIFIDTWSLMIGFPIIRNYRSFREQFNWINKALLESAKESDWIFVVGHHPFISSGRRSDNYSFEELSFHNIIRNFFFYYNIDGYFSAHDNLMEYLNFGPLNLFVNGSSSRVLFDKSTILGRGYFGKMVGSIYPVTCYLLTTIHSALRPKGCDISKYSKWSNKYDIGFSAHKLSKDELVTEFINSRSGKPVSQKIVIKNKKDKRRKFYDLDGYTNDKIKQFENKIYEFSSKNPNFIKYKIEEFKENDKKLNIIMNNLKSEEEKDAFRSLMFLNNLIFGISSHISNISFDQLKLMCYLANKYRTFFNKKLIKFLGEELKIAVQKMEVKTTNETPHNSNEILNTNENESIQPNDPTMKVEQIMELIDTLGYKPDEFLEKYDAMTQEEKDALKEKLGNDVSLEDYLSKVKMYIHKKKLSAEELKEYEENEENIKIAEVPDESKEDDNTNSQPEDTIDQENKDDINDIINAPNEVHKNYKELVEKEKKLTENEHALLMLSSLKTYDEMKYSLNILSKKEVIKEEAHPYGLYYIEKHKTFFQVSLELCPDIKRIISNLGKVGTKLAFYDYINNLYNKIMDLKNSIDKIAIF
GST- and His-tagged PbUIS2 PD: residues 535-1054 of A0A509AQ20

B1: purified recombinant PfeIF2α-P (protein, UniProt Q8IBH7 1-329)
chain: MTEMRVKADLGDCRFYKKKFPEVDDLIMVKVNRIEDMGAYVSILEYNDMEGMILMSELSKRRFRSVNKLIRVGRHEVVLVLRVDSQKGYIDLSKRRVSPKDIIKCEEKFSKSKKVHQTVRHVAKEHGITVEELNEKAIWPLYERYGHALDALKEATMNPENVFKGLDISEEIKNSLLKDIKLRLTPQALKLRGRIDVWCFGYEGIDAVKEALKKGKEISNDKVSINIKLIAPPQYVIVTSCHDKDLGMAKIQEAMKVISDKIKEYKGGDFKQQGEILVIGGDEEKRLEELLDKHDGISSDDDDYNTSDEDDENSSEEDENTSEDEEEED
modifications: phosphorylated (eIF2α-P); regulatory ser59

How the values were obtained:
[1] = target: GST-PfeIF2αS59D (P. falciparum) (UniProt Q8IBH7); experiment: pull-down; GST-PfeIF2α (wt, S59A or S59D) immobilized on glutathione column, incubated 2 hours with lysates of P. berghei blood stage parasites with or without Sal (50 μM) or GA (70 μM); 3 washes with high-salt NETN buffer (300 mM NaCl, 20 mM Tris-HCl pH 8.0, 0.5 mM EDTA, 0.5% NP-40); eluted with reduced glutathione; immunoblot; only the target purified
[2] = target: GST-PfeIF2αS59A (P. falciparum) (UniProt Q8IBH7); experiment: as above
[3] = target: GST- and His-tagged PbUIS2 PD (P. berghei); experiment: pull-down; GST- and His-tagged PbUIS2 N-ter, PD or C-ter immobilized on glutathione sepharose 4B, incubated with purified recombinant PfeIF2α-P or PfeIF2α; 3 washes with high-salt NETN buffer (300 mM NaCl, 20 mM Tris-HCl pH 8.0, 0.5 mM EDTA, 0.5% NP-40); SDS-PAGE, coomassie staining; retained band identified by mass spectrometry; both purified

| Molecule | binding [1] | binding [2] | binding [3] |
| --- | --- | --- | --- |
| endogenous P. berghei UIS2 (from UniProt A0A509AQ20 23-1322) (enzyme) | binds | no binding |  |
| B1 |  |  | no binding |
